# Test results as given in PubChem BioAssay AID588499 (NMMLSC, 2011).
# The whole screen tested about 360,000 compounds, of which about 610 (0.17%) were called active. Inconclusive results, whose numbers are uncertain, are shown with a selection of clear calls. No stated cut-off is given here; in the data, active means inhibition above about 30%; inconclusive means no clear call, values can overlap the other calls; inactive means below that.
# Test system: Botulinum neurotoxin type A light chain protease (Clostridium botulinum A str. ATCC 3502)
# Test: blockers of BoNT/A LC substrate cleavage – biochemical, flow cytometry, MLPCN library, primary screen (AID 588499); further: plate controls were buffer without enzyme for full effect and enzyme alone for no effect
# Details: multiplex microsphere protease substrate cleavage, at 10 µM, hits give high values
row,Compound,inhibition
1,Cc1cc(NS(=O)(=O)c2ccc(NC(=O)Nc3ccccc3)cc2)no1,inconclusive: -2%
2,O=C1CSC(c2cn(-c3ccccc3)nc2-c2cc3ccccc3oc2=O)N1Cc1ccco1 (configuration not stated),inconclusive: -2.4%
3,Oc1ccccc1OCc1nc2ccccc2s1,inactive: 2.4%
4,CCc1c(C(=O)Nc2nnc(C3CC3)s2)csc1C,inconclusive: -2.8%
5,CN(C)c1ccc(NC(=O)CC2NCCNC2=O)cc1 (configuration not stated),inconclusive: 1.7%
6,Cc1ccc2nc(-c3ccc(NC(=S)NC(=O)C(C)C)cc3)sc2c1,inconclusive: 2.5%
7,CNc1nc(-c2ccc3c(c2)CCN3C(=O)c2cccc(F)c2)cs1,inactive: -1.4%
8,CN1c2ccsc2/C(=N/NC(=O)c2c(F)cccc2F)CS1(=O)=O,inactive: 0%
9,Cc1ccccc1OC1(C)CCN(Cc2ccc(-c3ccccn3)cc2)C1 (configuration not stated),inactive: -0.4%
10,CCCCNC(=S)N(C)/N=C/c1c(C)[nH]c2ccccc12,active: 32.4%
11,CCN(CC(=O)Nc1cc(Cl)ccc1C)C(=O)CCS(=O)(=O)c1ccc(C)cc1,inactive: 3.8%
12,COc1cccc(C(=O)N(Cc2nc(-c3ccc(C)cc3)no2)C(C)C)c1,inconclusive: 0.4%
13,O=C(NNc1c(Cl)cncc1Cl)c1cccs1,inconclusive: -3%
14,COc1cc(/C=C/c2ccc3c([N+](=O)[O-])cccc3n2)ccc1OCC(=O)O,inactive: -0.1%
15,Nc1cccc(-c2nc3ccc(N)cc3s2)c1,inactive: 0.1%
16,CC(C)c1nc(SCC(=O)N2CCCC2)c2ccccc2n1,inconclusive: -0.8%
17,COC(=O)CSc1nc(N)c2c3c(sc2n1)C(c1ccccc1)SC(c1ccccc1)C3 (configuration not stated),active: 30.3%
18,Cc1cccc2cc3c(N)c(C(=O)N4CCCc5ccccc54)sc3nc12,active: 54.5%
19,CC(Cc1ccccc1)NC(=O)C1(c2ccccc2)CCOCC1 (configuration not stated),inconclusive: -0.9%
20,Cc1ccc(S(=O)(=O)NC(CCC(N)=O)C(=O)NCc2ccc3c(c2)OCO3)c(C)c1 (configuration not stated),inconclusive: -0.8%
21,O=C(Cn1nnc(-c2cccs2)n1)OC1CCCCC1,inconclusive: -7.7%
22,O=C(NC(=O)c1cccc(OC(F)(F)C(F)F)c1)OC1CCS(=O)(=O)C1 (configuration not stated),inactive: -0.4%
23,CC1(C)CC(=O)C2=C(C1)N(Cc1ccccc1)C(=O)C2(O)C(F)(F)F (configuration not stated),inactive: 1.1%

row,Compound,inhibition
1,Cc1onc(-c2ccc(Cl)cc2Cl)c1-c1csc(N/N=C/c2ccccc2Cl)n1,inconclusive: 15%
2,O=C(c1cc([N+](=O)[O-])cc([N+](=O)[O-])c1)N(c1ccccn1)c1ccccn1,inactive: -0.3%
3,CCOc1ncccc1C(=O)NCc1ccccc1Cl,inactive: 0.3%
4,Cc1nn(-c2ccccc2)c(=O)c2noc(C)c12,inconclusive: -6.5%
5,O=C(Nc1ccccc1N1CCOCC1)c1cccc2c(Br)cccc12,inactive: -1.7%
6,CCC(=O)N1CCc2cc(S(=O)(=O)NC(CC(C)C)C(=O)N3CCc4ccccc43)ccc21 (configuration not stated),inconclusive: 0.5%
7,CC(=O)N1NC(=Nc2ccccc2)SC1(C)C,inactive: -1.1%
8,O=C(CN1CCCc2ccccc21)N1CCc2ccccc21,inconclusive: -9.8%
9,Cc1cccc(N2CCN(C(=O)CN3C(=O)NC(C)(C4CC4)C3=O)CC2)c1C (configuration not stated),inconclusive: 3.4%
10,COC(=O)c1ccc(NC(=O)CSc2nnc(C)n2-c2ccccc2)cc1,inactive: 8.9%
11,COc1cc2c(cc1OC)C(c1ccc(Cl)cc1)=NCC2,inconclusive: -4.9%
12,CC(C)OC(=O)c1cccnc1SCC(=O)N(C)c1ccccc1,inactive: -0.7%
13,Cc1nn(-c2ccccc2)c2c1C(c1ccco1)C(C#N)=C(N)O2 (configuration not stated),inconclusive: -1.7%
14,N#Cc1ccc(CSc2nnc(-c3ccccc3)n2Cc2ccco2)cc1,inconclusive: -3%
15,CCOC(=O)C(C)n1cnc2c(nnn2Cc2ccc(C)cc2)c1=O (configuration not stated),inconclusive: 0.4%
16,COc1ccc(CNC(=O)C(C)OC(=O)c2cccc(N(C)C)c2)cc1 (configuration not stated),inactive: 0.2%
17,CC(=O)N/N=C/c1ccccc1OCCOc1cccc(C)c1,inconclusive: -0.7%
18,O=S(=O)(c1cccc2nsnc12)N1CCc2ccccc2C1,inconclusive: 7.9%
19,Cc1cc(=O)oc2cc(NC(=O)C(C)Oc3cccc(Cl)c3)ccc12 (configuration not stated),inactive: 0.2%
20,CS(=O)(=O)NC1CCN(Cc2ccccc2)CC1,inconclusive: -3.3%
21,COc1ccc2cc(C3CC(c4cccs4)=NN3S(C)(=O)=O)c(Cl)nc2c1 (configuration not stated),inactive: 4%
22,Cc1ccc(CN2CCN(Cc3ccc4cccc(F)c4n3)CC2CCO)cc1 (configuration not stated),inconclusive: -4.8%
23,O=c1c(C(c2ccc(F)cc2)c2c(O)nc3n(c2=O)CCCS3)c(O)nc2n1CCCS2,inconclusive: 20.9%

row,Compound,inhibition
1,CCC(=O)Nc1cc(ON=C(C)C)cc([N+](=O)[O-])c1,inactive: -0.2%
2,CCOc1ccc(Cl)cc1-c1cc(C(=O)NCc2ccccc2OC)[nH]n1,inactive: 0.2%
3,COc1ccc(NC(=O)CSc2nc(O)c(Cc3ccccc3)c(=O)[nH]2)cc1,inconclusive: 0.2%
4,COc1ccccc1CC(=O)Nc1ccc(-c2nnc(-c3ccco3)o2)cc1,inactive: 0.6%
5,Nc1ccccc1NC1CCCCC1,active: 74.3%
6,CCO/C=C1/C(=O)N(C(C)=O)c2ccccc21,inconclusive: -1.4%
7,Cc1ccc(-c2nc3s/c(=C\c4ccco4)c(=O)n3n2)cc1,inactive: 1.2%
8,O=C(COc1ccc(Br)cc1)Nc1ccccc1C(=O)NC1CC1,inconclusive: 4.9%
9,COc1cccc(C(=O)NCC(=O)N/N=C/c2ccc3c(c2)OCO3)c1,inactive: -1.4%
10,N#C/C(=N\Nc1ccccc1)C(=N)N1CCCCCC1,inconclusive: 4.6%
11,Cc1ccc([C@H]2C[C@@H](O)[C@H](n3cc(C4CC4)nn3)CN2C(=O)c2cccs2)cc1,inactive: 0.1%
12,Cc1[nH]n(-c2ccccc2)c(=O)c1/C=N/NC(=O)c1cccc([N+](=O)[O-])c1,inactive: -0.9%
13,Cc1oc(-c2ccccc2Cl)[n+]([O-])c1C,inconclusive: -5%
14,CC(C)Oc1ccc(CSc2nnc3n(C)c(=O)c4c5c(sc4n23)CCCC5)cc1,inconclusive: -3.6%
15,COc1ccc2c(c1)c(C(=O)N/N=C/c1cn(C)c3ccccc13)c(C)n2C,inconclusive: -3.3%
16,Cc1ccn(CCSCC(=O)O)n1,inconclusive: 0.6%
17,COc1ccc(NC(=O)Nc2c(C)noc2-c2ccccc2)cc1,inconclusive: -7.2%
18,Nc1cc(N)nc(SCC(=O)NCC2CCCO2)n1 (configuration not stated),inconclusive: -0.7%
19,COCC(=O)Nc1nnc(CCc2ccccc2)s1,inconclusive: -1.3%
20,Cc1ccc2c(c1)CCCN2C(=O)c1cc2ccccc2oc1=O,inconclusive: -0.1%
21,O=C(O)CCCN1C(=O)/C(=C/c2ccc(-c3nc4ccccc4s3)o2)SC1=S,active: 30.3%
22,CCOC(=O)CNC(=O)c1ccccc1,inactive: -0.1%
23,CCOC(=O)N1CCN(S(=O)(=O)c2ccc(C(=O)N(CCCN(C)C)c3nc4ccc(Cl)cc4s3)cc2)CC1,inactive: -0.2%

row,Compound,inhibition
1,COC(=O)C(=Nc1ccccc1)/C(C(=O)C(=O)N(C)c1ccccc1)=C(\O)c1ccccc1,inconclusive: 17.6%
2,COc1ccc(C(=O)NCCn2ccc3ccccc32)cc1,active: 53%
3,Cn1c(=O)c2c(nc(NCC3CCCO3)n2C)n(C)c1=O (configuration not stated),inactive: 0.6%
4,CCOC(=O)C1=CN(Cc2cccc(-c3ccc(F)cc3)c2)S(=O)(=O)N(C)C1C (configuration not stated),inactive: -0.5%
5,Cc1cccc(C2N=C(N)Nc3nc4ccccc4n32)c1 (configuration not stated),inconclusive: -39.1%
6,CCOc1ccc(Nc2oc(-c3cccc(Cl)c3)nc2C#N)cc1,inconclusive: 1.4%
7,COc1ccc(C(=O)Nc2nc(-c3ccc(OC)cc3)c(-c3ccc([N+](=O)[O-])cc3)s2)cc1,active: 40.2%
8,Cn1c(N)c(S(=O)(=O)c2ccc(Br)cc2)c2nc3ccccc3nc21,inactive: 2.2%
9,Cc1ccc(OC(=O)C2CSC3(C)CCC(=O)N23)c(Br)c1 (configuration not stated),inconclusive: 1.4%
10,CCCc1cc(=O)[nH]c(SCC(=O)Nc2cc(S(=O)(=O)N3CCOCC3)ccc2Cl)n1,inactive: 0.4%
11,CC1(C)Cc2c(sc3nc(-c4cccs4)n(N)c(=O)c23)CO1,inconclusive: 4.8%
12,COc1ccccc1NC(=O)c1ccccc1NC(=O)c1cc(Cl)ccc1NC(=O)c1ccco1,inconclusive: 2.2%
13,Cc1cc(O)c(/C=N/Nc2ccc(Cl)cc2)c(=O)o1,inactive: -0.6%
14,Cc1nn(Cc2ccccc2Cl)c(C)c1C(=O)OCC(=O)NC1CCCC(C)C1C (configuration not stated),inactive: 0%
15,O=C(CSC1=NS(=O)(=O)c2ccccc2N1)NCc1ccc(F)cc1,inactive: 4.9%
16,CC(Nc1nc(N2CCCCC2)nc2ccccc12)c1ccccc1 (configuration not stated),inconclusive: -5.3%
17,Brc1ccc(-c2nc(-c3ccncc3)no2)o1,inconclusive: 3.4%
18,Cc1ccc(C(=O)Nc2cccc(-c3cnc4ccccc4n3)c2)cc1,inactive: 1.6%
19,CCc1ccc(-n2c(O)c(C(C)=O)c(=O)[nH]c2=O)cc1 (tested in a mixture with another compound),inconclusive: 35.1%
20,O=C(CCCn1c(=O)c2sccc2n(CC(=O)NCc2ccco2)c1=O)NCc1ccco1,inconclusive: 1.6%
21,Clc1cccc(OCCN2CCOCC2)c1,inactive: 0.1%
22,CC(C)[C@H](NC(=O)C1CCN(S(=O)(=O)c2ccccc2)CC1)C(=O)NCc1ccncc1,inactive: -5.4%
23,CCn1c(CNC(=O)c2cccs2)nnc1SCC(=O)NCCc1ccccc1,inconclusive: -0.6%

# Part of the list above, set out differently:
row	Compound	inhibition
17	COc1ccc(NC(=O)Nc2c(C)noc2-c2ccccc2)cc1	inconclusive: -7.2%
18	Nc1cc(N)nc(SCC(=O)NCC2CCCO2)n1 (configuration not stated)	inconclusive: -0.7%
19	COCC(=O)Nc1nnc(CCc2ccccc2)s1	inconclusive: -1.3%
20	Cc1ccc2c(c1)CCCN2C(=O)c1cc2ccccc2oc1=O	inconclusive: -0.1%
21	O=C(O)CCCN1C(=O)/C(=C/c2ccc(-c3nc4ccccc4s3)o2)SC1=S	active: 30.3%
22	CCOC(=O)CNC(=O)c1ccccc1	inactive: -0.1%
23	CCOC(=O)N1CCN(S(=O)(=O)c2ccc(C(=O)N(CCCN(C)C)c3nc4ccc(Cl)cc4s3)cc2)CC1	inactive: -0.2%
1	COC(=O)C(=Nc1ccccc1)/C(C(=O)C(=O)N(C)c1ccccc1)=C(\O)c1ccccc1	inconclusive: 17.6%
2	COc1ccc(C(=O)NCCn2ccc3ccccc32)cc1	active: 53%
3	Cn1c(=O)c2c(nc(NCC3CCCO3)n2C)n(C)c1=O (configuration not stated)	inactive: 0.6%
4	CCOC(=O)C1=CN(Cc2cccc(-c3ccc(F)cc3)c2)S(=O)(=O)N(C)C1C (configuration not stated)	inactive: -0.5%
5	Cc1cccc(C2N=C(N)Nc3nc4ccccc4n32)c1 (configuration not stated)	inconclusive: -39.1%
6	CCOc1ccc(Nc2oc(-c3cccc(Cl)c3)nc2C#N)cc1	inconclusive: 1.4%
7	COc1ccc(C(=O)Nc2nc(-c3ccc(OC)cc3)c(-c3ccc([N+](=O)[O-])cc3)s2)cc1	active: 40.2%
8	Cn1c(N)c(S(=O)(=O)c2ccc(Br)cc2)c2nc3ccccc3nc21	inactive: 2.2%
9	Cc1ccc(OC(=O)C2CSC3(C)CCC(=O)N23)c(Br)c1 (configuration not stated)	inconclusive: 1.4%
10	CCCc1cc(=O)[nH]c(SCC(=O)Nc2cc(S(=O)(=O)N3CCOCC3)ccc2Cl)n1	inactive: 0.4%
11	CC1(C)Cc2c(sc3nc(-c4cccs4)n(N)c(=O)c23)CO1	inconclusive: 4.8%
12	COc1ccccc1NC(=O)c1ccccc1NC(=O)c1cc(Cl)ccc1NC(=O)c1ccco1	inconclusive: 2.2%
13	Cc1cc(O)c(/C=N/Nc2ccc(Cl)cc2)c(=O)o1	inactive: -0.6%
14	Cc1nn(Cc2ccccc2Cl)c(C)c1C(=O)OCC(=O)NC1CCCC(C)C1C (configuration not stated)	inactive: 0%
15	O=C(CSC1=NS(=O)(=O)c2ccccc2N1)NCc1ccc(F)cc1	inactive: 4.9%
16	CC(Nc1nc(N2CCCCC2)nc2ccccc12)c1ccccc1 (configuration not stated)	inconclusive: -5.3%
17	Brc1ccc(-c2nc(-c3ccncc3)no2)o1	inconclusive: 3.4%
18	Cc1ccc(C(=O)Nc2cccc(-c3cnc4ccccc4n3)c2)cc1	inactive: 1.6%
19	CCc1ccc(-n2c(O)c(C(C)=O)c(=O)[nH]c2=O)cc1 (tested in a mixture with another compound)	inconclusive: 35.1%
20	O=C(CCCn1c(=O)c2sccc2n(CC(=O)NCc2ccco2)c1=O)NCc1ccco1	inconclusive: 1.6%
21	Clc1cccc(OCCN2CCOCC2)c1	inactive: 0.1%
